No constants are given. Whether binding was seen depends on the method and setting. For part of these data: In cells and extracts the contact can be indirect. Some entries that bind do so weakly or less than the wild type. For part of these data: Tags and fused reporters may be left off the sequences shown. Values belong to the substance of their own block, whether it stands above or below them.
Assays:
[1] = target: T1, NICOL-PA-Rho1D4 from the Clgn-Nicol transgene (mouse) (UniProt Q3UR78); assay: co-IP; testis lysates of Clgn-Nell2 and Clgn-Nicol transgenic mice; NICOL immunoprecipitated with anti-Rho1D4 and Dynabeads protein G; NICOL detected with anti-PA, NELL2 with anti-NELL2
T1 sequence: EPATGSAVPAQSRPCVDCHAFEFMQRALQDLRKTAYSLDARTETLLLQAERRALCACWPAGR

Sequences of proteins named here, by UniProt entry; tags and fusion partners are left off. Residues count along the entry.
UniProt Q61220, residues 25-819: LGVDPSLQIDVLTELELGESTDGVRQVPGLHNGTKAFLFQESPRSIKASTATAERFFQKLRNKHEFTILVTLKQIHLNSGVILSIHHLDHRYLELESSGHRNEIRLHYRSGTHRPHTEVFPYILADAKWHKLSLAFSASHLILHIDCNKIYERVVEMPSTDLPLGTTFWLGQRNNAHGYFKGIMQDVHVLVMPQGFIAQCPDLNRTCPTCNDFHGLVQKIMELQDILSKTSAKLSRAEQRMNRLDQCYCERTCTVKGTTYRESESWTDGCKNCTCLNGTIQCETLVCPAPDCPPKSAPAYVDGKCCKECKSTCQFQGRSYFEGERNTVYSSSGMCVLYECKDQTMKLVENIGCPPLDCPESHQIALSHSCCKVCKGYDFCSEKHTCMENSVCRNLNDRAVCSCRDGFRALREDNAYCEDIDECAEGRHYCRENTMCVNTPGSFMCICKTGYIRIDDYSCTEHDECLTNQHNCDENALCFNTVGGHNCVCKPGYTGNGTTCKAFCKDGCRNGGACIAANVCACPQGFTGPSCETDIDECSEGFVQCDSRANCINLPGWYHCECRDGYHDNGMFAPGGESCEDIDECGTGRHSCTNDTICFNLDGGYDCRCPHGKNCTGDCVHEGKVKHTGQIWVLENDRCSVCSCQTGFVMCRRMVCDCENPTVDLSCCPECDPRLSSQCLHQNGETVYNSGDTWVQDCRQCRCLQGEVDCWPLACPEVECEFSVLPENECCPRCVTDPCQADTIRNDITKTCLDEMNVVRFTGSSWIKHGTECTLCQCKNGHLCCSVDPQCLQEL
UniProt Q78DX7, residues 29-1854: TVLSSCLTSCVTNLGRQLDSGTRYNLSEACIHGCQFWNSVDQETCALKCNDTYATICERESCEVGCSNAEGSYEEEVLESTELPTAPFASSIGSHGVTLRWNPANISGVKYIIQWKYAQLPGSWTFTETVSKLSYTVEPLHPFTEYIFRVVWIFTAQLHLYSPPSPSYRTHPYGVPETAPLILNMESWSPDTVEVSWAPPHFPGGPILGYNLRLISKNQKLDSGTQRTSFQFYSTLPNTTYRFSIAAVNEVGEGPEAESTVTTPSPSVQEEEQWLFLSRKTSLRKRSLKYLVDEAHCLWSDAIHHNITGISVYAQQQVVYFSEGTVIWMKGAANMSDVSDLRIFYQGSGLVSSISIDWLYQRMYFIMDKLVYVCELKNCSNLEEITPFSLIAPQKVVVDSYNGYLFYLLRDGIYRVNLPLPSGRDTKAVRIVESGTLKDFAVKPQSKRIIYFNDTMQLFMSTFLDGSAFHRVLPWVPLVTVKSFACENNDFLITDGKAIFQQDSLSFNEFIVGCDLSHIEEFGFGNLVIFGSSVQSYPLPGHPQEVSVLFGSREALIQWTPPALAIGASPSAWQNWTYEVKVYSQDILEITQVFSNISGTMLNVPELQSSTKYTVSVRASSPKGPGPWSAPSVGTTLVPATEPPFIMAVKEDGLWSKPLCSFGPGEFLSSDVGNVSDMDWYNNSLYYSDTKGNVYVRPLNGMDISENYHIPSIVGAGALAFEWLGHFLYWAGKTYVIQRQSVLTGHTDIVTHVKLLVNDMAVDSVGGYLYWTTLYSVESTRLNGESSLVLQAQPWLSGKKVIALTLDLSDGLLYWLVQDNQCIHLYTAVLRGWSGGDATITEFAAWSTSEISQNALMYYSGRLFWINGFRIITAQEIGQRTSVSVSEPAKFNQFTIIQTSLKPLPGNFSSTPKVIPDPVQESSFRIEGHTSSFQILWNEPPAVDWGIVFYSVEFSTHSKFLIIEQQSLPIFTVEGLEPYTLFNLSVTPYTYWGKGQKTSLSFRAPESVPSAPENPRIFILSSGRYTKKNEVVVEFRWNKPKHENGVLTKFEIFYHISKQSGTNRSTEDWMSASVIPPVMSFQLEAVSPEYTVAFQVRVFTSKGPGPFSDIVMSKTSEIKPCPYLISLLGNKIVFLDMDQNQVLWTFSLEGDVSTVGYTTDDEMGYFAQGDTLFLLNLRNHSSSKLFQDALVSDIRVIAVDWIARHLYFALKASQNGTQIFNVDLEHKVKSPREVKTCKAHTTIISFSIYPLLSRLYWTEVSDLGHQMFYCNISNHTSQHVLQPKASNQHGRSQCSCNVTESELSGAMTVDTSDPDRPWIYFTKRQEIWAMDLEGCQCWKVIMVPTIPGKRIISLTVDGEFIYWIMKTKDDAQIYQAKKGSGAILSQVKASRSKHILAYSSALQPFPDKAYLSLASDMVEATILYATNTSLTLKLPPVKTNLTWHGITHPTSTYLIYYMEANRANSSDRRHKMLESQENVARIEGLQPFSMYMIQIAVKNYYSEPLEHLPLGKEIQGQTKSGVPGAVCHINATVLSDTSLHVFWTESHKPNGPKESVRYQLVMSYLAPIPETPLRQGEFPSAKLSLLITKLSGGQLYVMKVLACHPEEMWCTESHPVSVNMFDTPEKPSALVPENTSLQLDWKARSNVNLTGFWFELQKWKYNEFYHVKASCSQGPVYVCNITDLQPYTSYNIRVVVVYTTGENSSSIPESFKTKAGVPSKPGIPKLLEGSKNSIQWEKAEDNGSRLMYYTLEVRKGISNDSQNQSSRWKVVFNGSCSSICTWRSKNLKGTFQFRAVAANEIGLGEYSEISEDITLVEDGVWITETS

[2] = target: T2, NELL2-interacting cofactor for lumicrine signalling (NICOL), 6xHis-tagged recombinant (mouse) (UniProt Q3UR78); assay: pull-down; purified NICOL conjugated to NHS-activated agarose (100 ug on 25 ul beads); purified recombinant NELL2 applied; immunoblot with anti-NELL2; both purified
T2 sequence: T1 sequence

[3] = target: T2, NELL2-interacting cofactor for lumicrine signalling (NICOL), 6xHis-tagged recombinant (mouse); assay: pull-down; purified NICOL conjugated to NHS-activated agarose; lysate of 293 F cells expressing ROS1 ectodomain (1 ml of 1 mg protein/ml), overnight at 4 °C; immunoblot with anti-Rho1D4; only the target purified

binding [1]: binds
Substance: NELL2 in testis lysate of Clgn-Nell2 transgenic mice (from UniProt Q61220 25-819)

binding [2]: binds
Substance: neural epidermal growth factor-like like 2 (NELL2), C-terminally 6xHis-tagged recombinant (from UniProt Q61220 25-819)

binding [3]: binds
Substance: ROS1 extracellular domain followed by 8xHis and Rho1D4 epitope (from UniProt Q78DX7 29-1854) (domain or fragment)

From paper PMC10125973, “A small secreted protein NICOL regulates lumicrine-mediated sperm maturation and male fertility” (Nature Communications, 2023)
